Data on 3 substances can be found in publication PMC3554609.

Sequences of proteins named here, by UniProt entry; tags and fusion partners are left off.
UniProt Q3UP24: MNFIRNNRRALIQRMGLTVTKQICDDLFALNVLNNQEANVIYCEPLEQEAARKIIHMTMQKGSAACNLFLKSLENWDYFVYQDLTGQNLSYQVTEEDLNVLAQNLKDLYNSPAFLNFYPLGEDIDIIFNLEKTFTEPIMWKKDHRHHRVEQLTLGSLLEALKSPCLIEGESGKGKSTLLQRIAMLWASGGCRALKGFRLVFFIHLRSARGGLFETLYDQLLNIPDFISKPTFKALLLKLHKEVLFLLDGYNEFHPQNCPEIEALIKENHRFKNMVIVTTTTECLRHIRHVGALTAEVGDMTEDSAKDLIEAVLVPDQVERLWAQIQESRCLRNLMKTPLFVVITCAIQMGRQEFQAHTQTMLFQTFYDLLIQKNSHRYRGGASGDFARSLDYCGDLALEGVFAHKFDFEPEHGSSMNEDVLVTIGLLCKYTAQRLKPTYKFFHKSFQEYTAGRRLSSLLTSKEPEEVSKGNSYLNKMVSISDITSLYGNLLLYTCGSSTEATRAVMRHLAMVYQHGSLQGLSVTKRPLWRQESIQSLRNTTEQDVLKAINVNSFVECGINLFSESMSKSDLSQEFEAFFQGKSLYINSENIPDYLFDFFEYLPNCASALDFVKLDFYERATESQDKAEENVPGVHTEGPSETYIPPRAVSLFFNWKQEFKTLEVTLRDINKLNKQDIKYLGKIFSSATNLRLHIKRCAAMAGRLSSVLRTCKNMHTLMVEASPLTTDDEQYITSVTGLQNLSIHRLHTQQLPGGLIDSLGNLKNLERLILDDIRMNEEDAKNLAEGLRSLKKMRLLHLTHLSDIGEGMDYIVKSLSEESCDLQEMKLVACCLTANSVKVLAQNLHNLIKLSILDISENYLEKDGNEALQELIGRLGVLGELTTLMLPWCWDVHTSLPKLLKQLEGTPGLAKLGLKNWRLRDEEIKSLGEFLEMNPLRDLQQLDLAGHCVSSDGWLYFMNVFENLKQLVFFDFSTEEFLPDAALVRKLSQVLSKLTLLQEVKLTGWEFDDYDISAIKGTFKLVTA
UniProt Q9QUK4: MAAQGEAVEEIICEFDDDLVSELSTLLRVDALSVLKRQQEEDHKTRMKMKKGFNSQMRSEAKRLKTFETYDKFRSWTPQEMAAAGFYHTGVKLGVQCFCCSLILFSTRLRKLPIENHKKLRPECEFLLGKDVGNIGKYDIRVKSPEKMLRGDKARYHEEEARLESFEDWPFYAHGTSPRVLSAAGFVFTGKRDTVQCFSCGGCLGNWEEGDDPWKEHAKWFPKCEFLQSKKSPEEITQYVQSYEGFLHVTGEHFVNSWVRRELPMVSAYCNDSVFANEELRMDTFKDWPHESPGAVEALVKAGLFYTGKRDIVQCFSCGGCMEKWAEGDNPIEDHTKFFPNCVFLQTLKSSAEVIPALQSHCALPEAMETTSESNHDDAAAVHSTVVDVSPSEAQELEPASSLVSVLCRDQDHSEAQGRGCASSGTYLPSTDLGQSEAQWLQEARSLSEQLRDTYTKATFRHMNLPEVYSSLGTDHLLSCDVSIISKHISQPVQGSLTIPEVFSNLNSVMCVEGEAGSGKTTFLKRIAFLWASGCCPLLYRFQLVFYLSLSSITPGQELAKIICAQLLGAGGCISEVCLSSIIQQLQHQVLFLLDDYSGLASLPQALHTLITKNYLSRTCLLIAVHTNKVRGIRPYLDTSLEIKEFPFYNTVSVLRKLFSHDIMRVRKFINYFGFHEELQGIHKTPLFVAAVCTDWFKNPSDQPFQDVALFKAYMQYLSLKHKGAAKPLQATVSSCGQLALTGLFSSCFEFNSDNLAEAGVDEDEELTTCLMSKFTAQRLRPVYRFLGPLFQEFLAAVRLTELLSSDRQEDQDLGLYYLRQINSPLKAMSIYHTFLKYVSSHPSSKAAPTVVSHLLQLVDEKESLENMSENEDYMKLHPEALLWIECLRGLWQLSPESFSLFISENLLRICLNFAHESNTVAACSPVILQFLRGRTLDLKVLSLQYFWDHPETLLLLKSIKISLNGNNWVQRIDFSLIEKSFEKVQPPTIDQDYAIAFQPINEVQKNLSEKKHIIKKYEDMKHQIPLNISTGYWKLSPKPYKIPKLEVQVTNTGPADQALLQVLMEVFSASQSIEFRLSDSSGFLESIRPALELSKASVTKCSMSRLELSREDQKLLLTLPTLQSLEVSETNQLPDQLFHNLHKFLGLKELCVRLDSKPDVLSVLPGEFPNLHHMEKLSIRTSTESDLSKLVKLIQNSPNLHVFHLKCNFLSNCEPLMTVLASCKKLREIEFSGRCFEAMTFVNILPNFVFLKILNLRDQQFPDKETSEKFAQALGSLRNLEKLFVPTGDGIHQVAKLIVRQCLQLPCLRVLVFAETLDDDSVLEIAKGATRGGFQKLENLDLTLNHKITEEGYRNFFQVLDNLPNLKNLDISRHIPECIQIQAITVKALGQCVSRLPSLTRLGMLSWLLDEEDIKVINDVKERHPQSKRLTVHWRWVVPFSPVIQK
UniProt Q9R016: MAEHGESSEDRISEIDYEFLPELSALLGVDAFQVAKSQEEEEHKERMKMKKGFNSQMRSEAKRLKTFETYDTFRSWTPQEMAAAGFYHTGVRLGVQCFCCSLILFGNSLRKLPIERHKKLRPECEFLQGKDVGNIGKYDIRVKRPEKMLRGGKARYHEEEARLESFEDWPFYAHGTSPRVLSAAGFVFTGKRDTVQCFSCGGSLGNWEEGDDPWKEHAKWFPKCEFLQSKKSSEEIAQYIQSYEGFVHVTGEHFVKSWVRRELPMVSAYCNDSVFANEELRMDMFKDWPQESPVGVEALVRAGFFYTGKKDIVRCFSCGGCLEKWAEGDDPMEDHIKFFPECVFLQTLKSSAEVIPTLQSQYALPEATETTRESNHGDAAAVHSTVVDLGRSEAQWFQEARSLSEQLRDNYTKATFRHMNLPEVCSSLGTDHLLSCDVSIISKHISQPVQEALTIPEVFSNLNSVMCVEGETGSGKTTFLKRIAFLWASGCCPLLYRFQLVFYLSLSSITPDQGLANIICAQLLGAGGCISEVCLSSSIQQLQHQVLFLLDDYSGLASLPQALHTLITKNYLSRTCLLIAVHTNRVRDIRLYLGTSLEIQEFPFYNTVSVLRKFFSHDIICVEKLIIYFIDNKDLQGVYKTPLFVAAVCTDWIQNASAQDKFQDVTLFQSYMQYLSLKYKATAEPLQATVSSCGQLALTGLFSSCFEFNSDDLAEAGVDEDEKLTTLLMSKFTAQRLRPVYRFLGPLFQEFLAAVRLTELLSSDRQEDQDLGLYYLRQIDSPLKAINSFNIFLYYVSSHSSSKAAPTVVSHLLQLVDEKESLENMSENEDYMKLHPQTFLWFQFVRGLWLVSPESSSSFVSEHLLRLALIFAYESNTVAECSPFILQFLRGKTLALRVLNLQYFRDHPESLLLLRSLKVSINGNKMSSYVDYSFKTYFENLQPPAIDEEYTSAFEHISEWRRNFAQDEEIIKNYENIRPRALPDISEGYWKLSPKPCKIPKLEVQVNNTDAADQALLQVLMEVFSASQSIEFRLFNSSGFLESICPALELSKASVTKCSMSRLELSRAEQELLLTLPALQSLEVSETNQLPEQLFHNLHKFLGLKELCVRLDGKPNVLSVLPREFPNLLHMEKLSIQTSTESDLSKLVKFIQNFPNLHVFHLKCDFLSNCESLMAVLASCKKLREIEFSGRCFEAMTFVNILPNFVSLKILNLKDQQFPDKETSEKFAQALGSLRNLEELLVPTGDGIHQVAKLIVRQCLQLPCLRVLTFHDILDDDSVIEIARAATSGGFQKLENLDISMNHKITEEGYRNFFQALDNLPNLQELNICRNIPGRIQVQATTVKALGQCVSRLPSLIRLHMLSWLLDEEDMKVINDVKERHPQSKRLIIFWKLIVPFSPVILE
UniProt P41785: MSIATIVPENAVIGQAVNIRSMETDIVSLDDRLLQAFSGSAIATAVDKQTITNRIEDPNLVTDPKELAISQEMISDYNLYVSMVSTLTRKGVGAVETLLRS

Results are given in words; binding and its absence hold for the method and conditions named. In cells and extracts the contact can be indirect. Some binding calls cover weakened binding; strength is not graded here.

The target of this experiment is FLAG-NLRC4 (UniProt Q3UP24). The experiment in a line: co-IP.

HA-NAIP2 (from UniProt Q9QUK4 1-1447): the binding entry is reported as “binds”.
Consider HA-NAIP5 (from UniProt Q9R016 1-1403), for which the binding entry was “binds”.
With Myc-PrgJ (from UniProt P41785 1-101) the entry was “binds”.
